PubChem BioAssay AID1259405, NCATS, 2018

Test: 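Mouse-designed siRNAs used to find CHO productivity engineering targets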 (primary screen)
Cells: Chinese hamster CHO-K1 ovary cells with stable secreted eGFP expression
Reagents: single siRNA against mouse genes, 0.8 pmol siRNA per well (2 µl of 400 nM stock)
Time to read-out: 3 days
Detection: 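Per-well intracellular GFP measured by laser scanning cytometry, plus viability from ATP luminescence, each relative to plate median of non-targeting control wells, in %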
Scale: GFP, % of control: higher = more GFP per well, higher productivity; viability (ATP), % of control: higher = more viable cells (more ATP)
Active means: 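Called active when intracellular GFP, relative to negative control, is at or above 120%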
In all, the deposit lists about 50,000 reagents; shown is an unselected part. About 4,000 of all reagents (8%) count as active. 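Mouse siRNA library applied to hamster cells; one well for each siRNA.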 The numbers tell different reagents against one gene apart.

The opening 3 entries as a preview:
gene,reagent no.,"GFP, % of control","viability (ATP), % of control",call
Syt3,1,53,101,inactive
Syt3,2,87.5,94.2,inactive
Aif1l,1,61.2,58.5,inactive

Main list, from the first entry:
gene,reagent no.,"GFP, % of control","viability (ATP), % of control",call
Syt3,1,53,101,inactive
Syt3,2,87.5,94.2,inactive
Aif1l,1,61.2,58.5,inactive
Aif1l,2,48.3,73,inactive
Aif1l,3,32,43.1,inactive
Hoxd9,1,82.8,100,inactive
Hoxd9,2,84.4,95.7,inactive
Hoxd9,3,65.1,95.3,inactive
Scube2,1,95.5,121,inactive
Scube2,2,125,87.7,active
Cdr1os,1,101,122,inactive
Cdr1os,2,92.4,92.9,inactive
Cdr1os,3,141,138,active
Or52e2,1,48.8,27.5,inactive
Or52e2,2,80.5,77.5,inactive
Or52e2,3,61.5,90,inactive
Id2,1,117,82.2,inactive
Id2,2,67.7,40.3,inactive
Id2,3,119,98.7,inactive
Nanos3,1,35.5,47,inactive
Nanos3,2,19.1,35.6,inactive
Nanos3,3,41.5,44.4,inactive
Mrgprb2,1,77.3,87,inactive
Mrgprb2,2,71.2,70.3,inactive
Mrgprb2,3,84.7,65.3,inactive
Mmut,1,114,123,inactive
Mmut,2,49.2,65,inactive
Mmut,3,45.6,42.6,inactive
Cfap95,1,74.3,87.2,inactive
Cfap95,2,78.4,87,inactive
Cfap95,3,42.7,71.1,inactive
Pias1,1,103,90.2,inactive
Pias1,2,120,90,inactive
Pias1,3,139,144,active
Cul7,1,47.1,65.3,inactive
Cul7,2,75.2,79.6,inactive
Cul7,3,94.6,72.8,inactive
Tbcc,1,70.4,63.2,inactive
Tbcc,2,58.1,110,inactive
Tbcc,3,104,110,inactive
Ppef2,1,77.1,81.3,inactive
Ppef2,2,73.7,70.5,inactive
Ppef2,3,63.8,94.6,inactive
Hoxd4,1,50.4,57.8,inactive
Hoxd4,2,75.1,73.4,inactive
Hoxd4,3,82.4,82.1,inactive
Kcnmb1,1,106,99.7,inactive
Kcnmb1,2,80.6,92.9,inactive
Kcnmb1,3,97.6,72.9,inactive
Gm4792,1,73.9,75.3,inactive
Gm4792,2,195,58.2,active
Gm4792,3,71,71.8,inactive
Zfp1,1,67.5,77.2,inactive
Zfp1,2,179,113,active
Zfp1,3,105,78.6,inactive
Zfp1,4,101,92.2,inactive
Zfp1,5,97.9,91.7,inactive
Zfp1,6,72.4,89,inactive
Or5p5,1,132,68.1,active
Or5p5,2,58.7,40.8,inactive
Or5p5,3,63.7,45.2,inactive
Kcna3,1,102,53.3,inactive
Kcna3,2,79.5,73,inactive
Kcna3,3,80.3,82.6,inactive
Cyp2d10,1,112,31.7,inactive
Cyp2d10,2,65.7,66.2,inactive
Cyp2d10,3,52.4,60.3,inactive
Hnrnpu,1,36.5,66.6,inactive
Hnrnpu,2,142,105,active
Hnrnpu,3,60.7,85,inactive
Spag11a,1,63.1,61.9,inactive
Spag11a,2,85.1,65.5,inactive
Spag11a,3,127,98.3,active
Slc5a4a,1,128,100,active
Slc5a4a,2,41.6,37.8,inactive
Slc5a4a,3,77.6,89.6,inactive
Tex15,1,102,89.1,inactive
Tex15,2,73,95.3,inactive
Tex15,3,147,127,active
Harbi1,1,68.9,96.8,inactive
Harbi1,2,71.1,74.6,inactive
Harbi1,3,105,50.4,inactive
Pkig,1,49.5,57.3,inactive
Pkig,2,86.4,62.4,inactive
Pkig,3,70.7,90.1,inactive
